Data taken from publication PMC8104946.
These are yes or no findings as the source states them, for the method shown. Binding seen in cells or lysates may run through a third protein. Some entries that bind do so weakly or less than the wild type. Where a sequence is shown, tags or fusion partners need not be part of it.

Molecular target: T1, CTPS-HA (Drosophila) (UniProt Q9VUL1)
T1 sequence: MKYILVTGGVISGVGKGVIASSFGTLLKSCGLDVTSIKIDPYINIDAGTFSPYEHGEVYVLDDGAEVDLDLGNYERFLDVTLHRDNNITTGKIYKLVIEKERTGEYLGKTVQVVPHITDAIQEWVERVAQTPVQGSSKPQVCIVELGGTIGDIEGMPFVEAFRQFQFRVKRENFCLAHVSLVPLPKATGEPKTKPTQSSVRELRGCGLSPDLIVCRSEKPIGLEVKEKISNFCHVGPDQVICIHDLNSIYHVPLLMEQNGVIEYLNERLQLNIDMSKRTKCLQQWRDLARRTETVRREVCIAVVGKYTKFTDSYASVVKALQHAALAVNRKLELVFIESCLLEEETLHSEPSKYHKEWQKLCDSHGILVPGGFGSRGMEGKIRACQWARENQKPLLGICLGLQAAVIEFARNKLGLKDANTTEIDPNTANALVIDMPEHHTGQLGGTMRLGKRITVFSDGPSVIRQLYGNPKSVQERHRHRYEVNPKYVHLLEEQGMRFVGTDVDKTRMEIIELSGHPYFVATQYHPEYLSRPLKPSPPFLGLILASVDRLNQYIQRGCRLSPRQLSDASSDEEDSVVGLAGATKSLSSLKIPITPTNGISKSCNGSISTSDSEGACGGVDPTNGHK
Test: co-IP; S2 cells 24 hours after transfection with CTPS-HA-T2A-Catsup-V5 or CTPS-HA-T2A-Pdcd4-V5; lysate on anti-HA magnetic beads or IgG bound Protein A/G magnetic beads overnight at 4 °C; blot with anti-V5

B1: Catsup-V5 (protein, UniProt Q9V3A4 1-449)
chain: MAKQVADYQCSKLQLYQKLALVVILGAVLFSLPALCAGQGNPSFKYSREANENFDPQKAPRAEHHHHHDHDHDHGHHHHGHDHDHDHDHGHDHGHHHHGHDHDHDHDHGHHHHGHDERHTKAKPDLDMSTIWLHSIGSTLLISAAPFVLLYIIPLDNSEAMKPRLKVLLAFASGGLLGDAFLHLIPHATHPHSHGEHGHDHGHDHHHHHDGEEHEHGHSHDMSIGLWVLGGIIAFLSVEKLVRILKGGHGGHGHSHGAPKPKPVPAKKKSSDKEDSGDGDKPAKPAKIKSKKPEAEPEGEVEISGYLNLAADFAHNFTDGLAIGASYLAGNSIGIVTTITILLHEVPHEIGDFAILIKSGCSRRKAMLLQLVTALGALAGTALALLGAGGGDGSAPWVLPFTAGGFIYIATVSVLPELLEESTKLKQSLKEIFALLTGVALMIVIAKFE
  binding: binds
